Experimental data: PubChem BioAssay AID504744 (Drosophila RNAi Screening Center, 2011)

Aim: 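Identify dsRNAs that increase or decrease phospho-dAkt after insulin treatment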 (primary screen)
System: Drosophila Kc167 cells
Knock-down reagent: long dsRNA against Drosophila genes, 250 ng dsRNA per well of a 384-well plate
Timing: 3 days of knock-down, then overnight serum-free starvation before stimulation
Treatment: bovine insulin at 387 nM for 10 minutes after 12 h without serum
Measured: 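Per-well phospho-dAkt level from an in-cell fluorescent antibody stain, divided by a DNA-dye signal; log2 residuals turned into z-scores that take cell number into account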
Call rule: 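Under insulin, a gene counts as a hit if the average z-score of two replicates lies above 2.5 or below -2.5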
In all, the deposit lists about 23,000 reagents; shown is an unselected part of those with a known target gene and a result. Over the whole deposit, 98 (0.43%) were called active. 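Only hit calls are given; the phospho-dAkt signals, z-scores and hit direction were not deposited.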 The numbers tell different reagents against one gene apart. Names joined by + are all predicted targets of the reagent.

The opening 16 records, ahead of the listing:
Gene | reagent no. | activity call
CG12126 | 1 | inactive
nAChRalpha1 (nicotinic Acetylcholine Receptor alpha1) | 1 | inactive
nAChRalpha1 (nicotinic Acetylcholine Receptor alpha1) | 2 | inactive
nAChRalpha1 (nicotinic Acetylcholine Receptor alpha1) | 3 | inactive
nAChRalpha1 (nicotinic Acetylcholine Receptor alpha1) | 4 | inactive
dpp (decapentaplegic) | 1 | inactive
dpp (decapentaplegic) | 2 | inactive
dpp (decapentaplegic) | 3 | inactive
Orp8 (Oxysterol-binding protein-related protein 8) | 1 | inactive
Orp8 (Oxysterol-binding protein-related protein 8) | 2 | inactive
CG18649 | 1 | inactive
CG13858 (retired record) | 1 | inactive
CG13858 (retired record) | 2 | inactive
CG13858 (retired record) | 3 | inactive
CG13858 (retired record) | 4 | inactive
Cyp311a1 (Cytochrome P450 311a1) | 1 | inactive

The listing, from the first entry:
Gene | reagent no. | activity call
CG12126 | 1 | inactive
nAChRalpha1 (nicotinic Acetylcholine Receptor alpha1) | 1 | inactive
nAChRalpha1 (nicotinic Acetylcholine Receptor alpha1) | 2 | inactive
nAChRalpha1 (nicotinic Acetylcholine Receptor alpha1) | 3 | inactive
nAChRalpha1 (nicotinic Acetylcholine Receptor alpha1) | 4 | inactive
dpp (decapentaplegic) | 1 | inactive
dpp (decapentaplegic) | 2 | inactive
dpp (decapentaplegic) | 3 | inactive
Orp8 (Oxysterol-binding protein-related protein 8) | 1 | inactive
Orp8 (Oxysterol-binding protein-related protein 8) | 2 | inactive
CG18649 | 1 | inactive
CG13858 (retired record) | 1 | inactive
CG13858 (retired record) | 2 | inactive
CG13858 (retired record) | 3 | inactive
CG13858 (retired record) | 4 | inactive
Cyp311a1 (Cytochrome P450 311a1) | 1 | inactive
ACXA (Adenylyl cyclase X A) | 1 | inactive
CG10053 | 1 | inactive
CG14632 (retired record) | 1 | inactive
CSN1b (COP9 signalosome subunit 1b) | 1 | inactive
CenB1A (Centaurin beta 1A) | 1 | inactive
CG17378 | 1 | inactive
CG10516 | 1 | inactive
sPLA2 (secretory Phospholipase A2) | 1 | inactive
CG17996 + Tsen2 | 1 | inactive
CG5111 | 1 | inactive
CG7990 | 1 | inactive
CG7990 | 2 | inactive
CG17475 | 1 | inactive
CG16824 | 1 | inactive
fw (furrowed) | 1 | inactive
Ids (Iduronate 2-sulfatase) | 1 | inactive
CG31697 | 1 | inactive
CG7903 | 1 | inactive
CG9029 | 1 | inactive
CG7509 | 1 | inactive
CG18324 | 1 | inactive
Efa6 (Exchange factor for Arf 6) | 1 | inactive
Efa6 (Exchange factor for Arf 6) | 2 | inactive
Efa6 (Exchange factor for Arf 6) | 3 | active
Rab27 | 1 | inactive
CG15464 (retired record) | 1 | inactive
CG15464 (retired record) | 2 | inactive
CG5770 | 1 | inactive
CG15784 | 1 | inactive
CG9967 | 1 | inactive
CG12128 + CG1407 | 1 | inactive
wde (windei) | 1 | inactive
Brd8 (Bromodomain containing 8) | 1 | inactive
CG14346 | 1 | inactive
CR30029 (pseudo) | 1 | inactive
Sin1 (SAPK-interacting protein 1) | 1 | active
ValRS-m (Valyl-tRNA synthetase, mitochondrial) | 1 | inactive
CG16781 | 1 | inactive
CAH1 + Adat1 | 1 | inactive
Fkbp59 (FK506-binding protein 59kD) | 1 | inactive
CG15739 | 1 | inactive
CG13203 | 1 | inactive
CG13310 | 1 | inactive
g (garnet) | 1 | inactive
CG31087 | 1 | inactive
eas (easily shocked) | 1 | inactive
Septin4 (Septin 4) | 1 | inactive
CG11317 | 1 | inactive
yellow-b | 1 | inactive
ND-49 (NADH dehydrogenase (ubiquinone) 49 kDa subunit) | 1 | inactive
Obp19d (Odorant-binding protein 19d) | 1 | inactive
Drsl3 (Drosomycin-like 3) | 1 | inactive
CG11180 | 1 | inactive
CG7255 | 1 | inactive
CG11703 | 1 | inactive
CG8360 | 1 | inactive
AkhR (Adipokinetic hormone receptor) | 1 | inactive
CG11269 | 1 | inactive
CG11791 | 1 | inactive
Fife | 1 | inactive
l(3)80Fg (lethal (3) 80Fg) | 1 | inactive
l(3)80Fg (lethal (3) 80Fg) | 2 | inactive
Drep1 (DNA fragmentation factor-related protein 1) | 1 | inactive
D1 (D1 chromosomal protein) | 1 | inactive
wapl (wings apart-like) | 1 | inactive
fit (female-specific independent of transformer) | 1 | inactive
Ugt50B3 (UDP-glycosyltransferase family 50 member B3) | 1 | inactive
Ugt50B3 (UDP-glycosyltransferase family 50 member B3) | 2 | inactive
Ugt50B3 (UDP-glycosyltransferase family 50 member B3) | 3 | inactive
CG13151 | 1 | inactive
Ssl (Suppressor of Stellate-like) | 1 | inactive
Dpy-30L2 (Dpy-30-like 2) | 1 | inactive
dao (down and out) | 1 | inactive
CG10958 | 1 | inactive
BomT3 (Bomanin Tailed 3) | 1 | inactive
BomT3 (Bomanin Tailed 3) | 2 | inactive
hiro (highroad) | 1 | inactive
smog | 1 | inactive
smog | 2 | inactive
flr (flare) | 1 | inactive
fiz (fezzik) | 1 | inactive
Rop (Ras opposite) | 1 | inactive
CR14117 (pseudo) | 1 | inactive
rdog (red dog mine) | 1 | inactive
Zfrp8 (Zinc finger protein RP-8) | 1 | inactive
Smu1 (Smu1 spliceosomal factor) | 1 | inactive
CG14777 | 1 | inactive
CG13928 | 1 | inactive
CG13055 | 1 | inactive
CG12003 | 1 | inactive
Argk1 (Arginine kinase 1) | 1 | inactive
Argk1 (Arginine kinase 1) | 2 | inactive
Argk1 (Arginine kinase 1) | 3 | inactive
Argk1 (Arginine kinase 1) | 4 | inactive
Argk1 (Arginine kinase 1) | 5 | inactive
Syx7 (Syntaxin 7) | 1 | inactive
ChT (Choline transporter) | 1 | inactive
CG13738 | 1 | inactive
SMC1 (Structural maintenance of chromosomes 1) | 1 | inactive
CG34404 | 1 | inactive
CG34404 | 2 | inactive
CG15147 | 1 | inactive
CG15147 | 2 | inactive
unc-13-4A | 1 | inactive
unc-13-4A | 2 | inactive
unc-13-4A | 3 | inactive
unc-13-4A | 4 | inactive
twy (twitchy) | 1 | inactive
CG32459 | 1 | inactive
pug (pugilist) | 1 | inactive
CG14273 | 1 | inactive
Drsl2 (Drosomycin-like 2) | 1 | inactive
l(3)87Df (lethal (3) 87Df) | 1 | inactive
CG30345 | 1 | inactive
Ufd1 (Ubiquitin fusion-degradation 1-like) | 1 | inactive
CG9933 | 1 | inactive
UQCR-11L (Ubiquinol-cytochrome c reductase 11 kDa subunit-like) | 1 | inactive
PGRP-LD + Pmi | 1 | inactive
PGRP-LD + Pmi | 2 | inactive
Mst57Db (Male-specific RNA 57Db) | 1 | inactive
to (takeout) | 1 | inactive
CR33317 (pseudo) | 1 | inactive
CG17991 | 1 | inactive
CG10459 | 1 | inactive
CG10459 | 2 | inactive
Paf-AHalpha (Platelet-activating factor acetylhydrolase alpha) | 1 | inactive
RhoGAP92B (Rho GTPase activating protein at 92B) | 1 | inactive
RhoGAP92B (Rho GTPase activating protein at 92B) | 2 | inactive
Cyp6a8 (Cytochrome P450 6a8) | 1 | inactive
cpb (capping protein beta) | 1 | inactive
lbe (ladybird early) | 1 | inactive
mEFTu1 (mitochondrial translation elongation factor Tu 1) | 1 | inactive
CG11656 | 1 | inactive
Eig71Eg (Ecdysone-induced gene 71Eg) | 1 | inactive
pnr (pannier) | 1 | inactive
mRpL38 (mitochondrial ribosomal protein L38) | 1 | inactive
AP-2sigma (Adaptor Protein complex 2, sigma subunit) | 1 | inactive
CG9030 | 1 | inactive
CG6000 | 1 | inactive
CG6688 | 1 | inactive
CG11912 | 1 | inactive
Xpac (Xeroderma pigmentosum group A-like) | 1 | inactive
CG11263 | 1 | inactive
CG4115 | 1 | inactive
Spps (Sp1-like factor for pairing sensitive-silencing) | 1 | inactive
CG32683 | 1 | inactive
CG32683 | 2 | inactive
CG32683 | 3 | inactive
CG32988 | 1 | inactive
CG9304 | 1 | inactive
GramD1B (GRAM domain containing 1B) | 1 | inactive
GramD1B (GRAM domain containing 1B) | 2 | inactive
Pp2B-14D (Protein phosphatase 2B at 14D) | 1 | inactive
CG15080 | 1 | inactive
S-Lap5 (Sperm-Leucylaminopeptidase 5) | 1 | inactive
CG18420 | 1 | inactive
Cpr47Eg (Cuticular protein 47Eg) | 1 | inactive
Rh2 (Rhodopsin 2) | 1 | inactive
RhoGEF64C (Rho guanine nucleotide exchange factor at 64C) | 1 | inactive
RhoGEF64C (Rho guanine nucleotide exchange factor at 64C) | 2 | inactive
CG13931 | 1 | inactive
Nubp1 (NUBP iron-sulfur cluster assembly factor 1) | 1 | inactive
Cftr (CF transmembrane conductance regulator) | 1 | inactive
obst-F (obstructor-F) | 1 | inactive
CG14362 | 1 | inactive
rols (rolling pebbles) | 1 | inactive
rols (rolling pebbles) | 2 | inactive
rols (rolling pebbles) | 3 | inactive
CG15725 | 1 | inactive
CG9616 | 1 | inactive
CG34030 | 1 | inactive
CG9377 | 1 | inactive
TwdlY (TweedleY) | 1 | inactive
GABA-B-R2 (metabotropic GABA-B receptor subtype 2) | 1 | inactive
l(2)k05819 (lethal (2) k05819) | 1 | inactive
CG32811 | 1 | inactive
CG9813 | 1 | inactive
Pcif1 (Phosphorylated CTD-interacting factor 1) | 1 | inactive
CG31220 | 1 | inactive
Cp110 (Centriolar coiled coil protein 110kDa) | 1 | inactive
Cp110 (Centriolar coiled coil protein 110kDa) | 2 | inactive
CG13950 | 1 | inactive
CG5292 | 1 | inactive
KdelR (KDEL receptor) | 1 | inactive
